Measurements taken from PubChem BioAssay AID2685 (National Center for Advancing Translational Sciences (NCATS), 2010).
The list shows a part of the results. Further columns of the screen follow, without active or inactive calls. The list favours compounds with an active or inconclusive main result. Potencies come from curve fits of mixed quality, noted in brackets.

Experiment: qHTS Assay for Lipid Storage Modulators in Drosophila S3 Cells;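 on cell number change: cells counted by Cell Tracker Red CMTPX staining in the red channel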
Conditions: BODIPY lipid droplet fluorescence, 18-24 h; for cell number change: measured here: cell count max response, cells fed with added oleic acid
Summary of the method: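 Drosophila S3 cells got compounds at several concentrations plus oleic acid (400 uM solution). Laser-scanning cytometry with 488 nm excitation read lipid droplets at 500-530 nm and cells at 575-640 nm. Percent activity was relative to 20 uM Triacsin C.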

[1] = measured here: cell number channel AC50, cells fed with added oleic acid
[2] = measured here: lipid fluorescence (Fed channel) AC50, cells fed with added oleic acid

Q: Which cell number change does the source give for `O=C(NC(=S)Nc1ccc(CN2CCOCC2)cc1)c1cccc([N+](=O)[O-])c1` here?
A: 40.5%

Q: What about the AC50 [1] of the same compound?
A: 16.4 µM [rising, partial curve]

Q: And the AC50 [2]?
A: 1.03 µM [rising, full curve, poor fit]

Q: For `CCCCCCSc1nc2c(c(=O)[nH]c(=O)n2C)n1C`, which cell number change is on record?
A: 12.8%

Q: What about the AC50 [2] of the same compound?
A: 4.11 µM [rising, single point]

Q: For `COc1ccc(CNC(=O)CSCc2c(F)cccc2Cl)cc1`, which cell number change is on record?
A: 15%

Q: With `COc1cc(/C(C#N)=C/c2cccc3ccccc23)c([N+](=O)[O-])cc1OC` as the compound, how does the cell number change read?
A: 19%

Q: And the AC50 [2]?
A: 4.61 µM [rising, partial curve]

Q: With `O=C(Nc1ccccc1Cc1ccccc1)c1ccccc1F` as the compound, how does the cell number change read?
A: -28.9%

Q: And the AC50 [2]?
A: 3.55 µM [rising, single point]

Q: For `O=C(NCc1cccnc1)c1ccc(NC(=O)c2ccc([N+](=O)[O-])cc2)cc1`, which cell number change is on record?
A: 5.95%

Q: Which results are given for `O=C1c2ccccc2C(=O)N1C/C=C/c1ccccc1`?
A: cell number change: -39.7%; AC50 [1]: 0.103 µM [falling, full curve, poor fit]

Q: What does the source list for `O=C(CCc1ccc(S(=O)(=O)NCc2ccccc2)cc1)N1CCN(Cc2ccc3c(c2)OCO3)CC1`?
A: cell number change: -30.8%; AC50 [2]: 0.0517 µM [falling, full curve, poor fit]

Q: For `CCn1c(C)cs/c1=N\C(=S)Nc1ccccc1C`, which cell number change is on record?
A: 9.44%

Q: And the AC50 [2]?
A: 29.1 µM [rising, single point]

Q: For `COc1cc(C(=O)NCc2nnc(SCC(=O)NCc3ccco3)o2)cc(OC)c1OC`, which cell number change is on record?
A: 25.7%

Q: And the AC50 [2]?
A: 10.3 µM [rising, partial curve]

Q: With `Cc1cccc(C)c1OCC(O)CN` (configuration not stated) as the compound, how does the cell number change read?
A: -7.48%

Q: What about the AC50 [1] of the same compound?
A: 0.58 µM [falling, partial curve]

Q: And the AC50 [2]?
A: 0.116 µM [falling, full curve]

Q: Which cell number change does the source give for `Cc1ccc(S(=O)(=O)NCC(=O)N2CCC(C)CC2)cc1` here?
A: 11.7%

Q: What about the AC50 [2] of the same compound?
A: 2.06 µM [rising, single point]

Q: Which results are given for `Cc1ccc(Sc2c(O)c3ccccc3n(C)c2=O)cc1`?
A: cell number change: 26.3%; AC50 [2]: 0.13 µM [rising, full curve, poor fit]

Q: For `CCc1ccc2oc(=O)cc(CN3CCOCC3)c2c1`, which cell number change is on record?
A: 5.5%

Q: What about the AC50 [2] of the same compound?
A: 5.8 µM [rising, single point]

Q: With `CCOc1ncccc1C(=O)Nc1cccc(-c2nc3cccnc3s2)c1` as the compound, how does the cell number change read?
A: -25.5%

Q: And the AC50 [2]?
A: 18.4 µM [falling, single point]

Q: Which cell number change does the source give for `O=C(c1cc(-c2ccc(Br)cc2)n[nH]1)N1CCN(C(=O)c2ccccc2Br)CC1` here?
A: -30%

Q: What about the AC50 [2] of the same compound?
A: 1.46 µM [rising, partial curve]

Q: For `CC(=O)Nc1ccc(C(=O)NNS(=O)(=O)c2ccc(C)cc2)cc1`, which cell number change is on record?
A: -39.2%

Q: And the AC50 [1]?
A: 0.259 µM [falling, full curve, poor fit]

Q: What about the AC50 [2] of the same compound?
A: 1.16 µM [falling, full curve]

Q: Which cell number change does the source give for `CCCOc1ccc(N2C(=O)CC(N3CCN(CCN=CC4=C(O)CC(C)(C)CC4=O)CC3)C2=O)cc1` (configuration not stated) here?
A: -50.5%

Q: What about the AC50 [1] of the same compound?
A: 29.1 µM [falling, single point]

Q: And the AC50 [2]?
A: 29.1 µM [falling, single point]

Q: Which cell number change does the source give for `Cc1ccc([N+](=O)[O-])cc1NC(=O)Nc1ccc(S(N)(=O)=O)cc1` here?
A: 26.5%

Q: And the AC50 [2]?
A: 0.184 µM [falling, full curve]

Q: For `Oc1ccccc1-c1csc(-c2ccccc2)n1`, which cell number change is on record?
A: -14.1%

Q: And the AC50 [2]?
A: 2.59 µM [falling, partial curve, poor fit]

Q: Which AC50 [1] does the source give for `C=CCOc1nc2c(c(=O)n(C)c(=O)n2C)n1Cc1ccccc1Cl` here?
A: 0.092 µM [rising, full curve, poor fit]

Q: And the AC50 [2]?
A: 0.13 µM [rising, full curve, poor fit]

Q: With `Cc1cc(C)cc(NC(=O)Nc2ccc(-n3ccc(C(F)(F)F)n3)cc2)c1` as the compound, how does the cell number change read?
A: -10.3%

Q: What about the AC50 [1] of the same compound?
A: 0.461 µM [rising, single point]

Q: And the AC50 [2]?
A: 29.1 µM [falling, single point]

Q: With `O=C(Nc1ccccc1)c1ccc2nc(-c3ccco3)c(-c3ccco3)nc2c1` as the compound, how does the AC50 [2] read?
A: 6.51 µM [rising, single point]

Q: For `Cc1ccc2nc(Cl)c(C3CC(c4cccs4)=NN3C(=O)CCCC(=O)O)cc2c1` (configuration not stated), which cell number change is on record?
A: -100%

Q: And the AC50 [1]?
A: 29.1 µM [falling, single point]

Q: And the AC50 [2]?
A: 4.61 µM [falling, full curve]

Q: With `O=c1/c(=C\c2cc([N+](=O)[O-])cc([N+](=O)[O-])c2O)sc2nc3ccccc3n12` as the compound, how does the cell number change read?
A: -15%

Q: And the AC50 [2]?
A: 32.6 µM [falling, single point]

Q: For `CC(=O)c1cn(CCOc2ccc(F)cc2)c2ccccc12`, which cell number change is on record?
A: -24.1%

Q: And the AC50 [2]?
A: 29.1 µM [falling, single point]

Q: Which cell number change does the source give for `CC(C)C[C@@H](CO)N1CCN(CCc2ccccc2)CCC1=O` here?
A: 24.6%

Q: Which cell number change does the source give for `Cc1[nH]n(-c2nc(-c3ccc(Cl)cc3)cs2)c(=O)c1N=Nc1ccc(O)cc1` here?
A: -37.9%

Q: And the AC50 [1]?
A: 4.11 µM [falling, full curve]

Q: What about the AC50 [2] of the same compound?
A: 20.6 µM [falling, partial curve]

Q: For `CCOC(=O)/C(C#N)=C\c1ccc(N2CCN(C/C=C/c3ccccc3)CC2)cc1`, which cell number change is on record?
A: -0.87%

Q: What about the AC50 [2] of the same compound?
A: 29.1 µM [falling, single point]

Q: Which results are given for `Cc1ccc(CCN2C(=O)c3ccc(C(=O)O)cc3C2=O)cc1`?
A: cell number change: 22.3%; AC50 [2]: 14.6 µM [rising, single point]

Q: Which cell number change does the source give for `COc1ccc(OC)c(Nc2nc3ccc(C)cc3n3cnnc23)c1` here?
A: -24.3%

Q: What about the AC50 [2] of the same compound?
A: 9.2 µM [falling, single point]

Q: Which results are given for `Cc1c(NS(=O)(=O)N2CCCCC2)c(=O)n(-c2ccccc2)n1C`?
A: cell number change: -5.11%; AC50 [2]: 4.11 µM [falling, single point]

Q: What does the source list for `CC1CCCC(NC(=O)COC(=O)Cc2ccsc2)C1C` (configuration not stated)?
A: cell number change: -44%; AC50 [1]: 2.91 µM [falling, full curve]; AC50 [2]: 7.31 µM [falling, partial curve]

Q: Which AC50 [2] does the source give for `CCCCS(=O)(=O)N1CN(S(=O)(=O)CCCC)C2NC(=O)NC21` (configuration not stated) here?
A: 2.91 µM [falling, partial curve]

Q: Which cell number change does the source give for `CC1CC(C)CN(C(=S)Nc2ccc3nc4n(c(=O)c3c2)CCCCC4)C1` (configuration not stated) here?
A: 17.2%

Q: What about the AC50 [2] of the same compound?
A: 29.1 µM [rising, single point]

Q: With `O=C(CSc1nnc(NC(=O)c2ccc(F)cc2)s1)NC1CCCC1` as the compound, how does the cell number change read?
A: 23.3%

Q: For `Cc1ccc(CNC(=O)CN(Cc2cccs2)C(=O)C2(C)CC(=O)N=C3C=CC=CN32)cc1` (configuration not stated), which cell number change is on record?
A: -56.7%

Q: And the AC50 [1]?
A: 29.1 µM [falling, single point]

Q: And the AC50 [2]?
A: 9.2 µM [falling, single point]
